This passage reports binding signal results from paper PMC7819943, “Rice protein-binding microarrays: a tool to detect cis-acting elements near promoter regions in rice”.

This is one part of the list.

The target of this assay is T1, OsSMF1 (Oryza sativa, UniProt Q6ZLB0 1-436).
T1 sequence: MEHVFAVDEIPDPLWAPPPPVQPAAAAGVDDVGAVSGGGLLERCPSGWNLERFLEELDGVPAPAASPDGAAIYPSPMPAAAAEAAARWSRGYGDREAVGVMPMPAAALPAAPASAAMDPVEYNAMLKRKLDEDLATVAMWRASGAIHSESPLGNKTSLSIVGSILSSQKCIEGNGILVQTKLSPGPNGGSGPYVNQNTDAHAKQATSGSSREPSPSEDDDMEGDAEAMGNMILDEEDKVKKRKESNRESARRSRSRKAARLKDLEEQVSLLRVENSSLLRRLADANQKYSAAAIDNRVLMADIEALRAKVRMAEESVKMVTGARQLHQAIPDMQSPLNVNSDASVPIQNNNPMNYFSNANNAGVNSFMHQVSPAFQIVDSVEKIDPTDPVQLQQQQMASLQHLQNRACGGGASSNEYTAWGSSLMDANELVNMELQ
As to the kind of experiment: protein-binding microarray (RPBM); PBS, 2% BSA, 51.3 ng/ul salmon testes DNA, 50 uM zinc acetate, 200 nM TF, 25 C, 1 h; high values mean tight binding. As to conditions: protein: recombinant; tags: N-terminal polyhistidine and DsRed monomer fusion (pET32a); chain copies: 2; label: CyDye5-dUTP incorporated in the synthesized complementary strand; 3' TTTTT single-stranded linker to array surface; dsDNA, one strand shown. The method, boiled down: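 For the binding signal, per-feature fluorescence intensity was read in arbitrary units on an Axon 4000B scanner. Before scanning, a 2% BSA-blocked custom Agilent array made double-stranded with Cy5-dUTP was washed after 1 h at 25 °C with 200 nM protein and 50 µM zinc acetate. The proteins were Ni–NTA-purified transcription factors with N-terminal polyhistidine and DsRed fusions, expressed in E. coli BL21-CodonPlus.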
Turning to “TTATCTGCAAATGGGTCGTTATCTCCTGAAGCTGTTGACACGGAGTCACCTAGTGCAG”, the binding signal is 17600 fluorescence intensity (a.u.).

With “ACATGATTTGTGCTCCATGACCTCTTTCTTCTATTATCTACGGAGTCACCTAGTGCAG”, the binding signal was 7980 fluorescence intensity (a.u.).

Turning to “TGCTATGCATACGACTCAGCTGTCCGACTCATGTATGAATCGGAGTCACCTAGTGCAG”, the binding signal is 3720 fluorescence intensity (a.u.).

For the sequence “GAAAATGAGTCAACTCCTATGTGGCATGTCACATGAGCACCGGAGTCACCTAGTGCAG”, the binding signal was 10400 fluorescence intensity (a.u.).

“CGTACTGTAGCTAGCTACTCTTTAGCAAGCTCACATCTTTCGGAGTCACCTAGTGCAG”: the binding signal was 3460 fluorescence intensity (a.u.).

With “TCTCCAAAATTAAACACCTATTTATGAAGCTAAACGTCAGCGGAGTCACCTAGTGCAG”, the binding signal is 3140 fluorescence intensity (a.u.).

With “CGCCACCTAACCCACGATCTGATCGGTCTGTGACTGGTCACGGAGTCACCTAGTGCAG”, the binding signal is 3510 fluorescence intensity (a.u.).

Turning to “CCACTAATCCCTCCTCTCATCGCACCACCACGCCACTGAGCGGAGTCACCTAGTGCAG”, the binding signal was 3590 fluorescence intensity (a.u.).

In the case of “GATGTGCGATAGCAGAATGGTGCTAAGTGAGTCACATCGTCGGAGTCACCTAGTGCAG”, the binding signal is 3970 fluorescence intensity (a.u.).

Regarding “ATTAATATGATTAAATAGAAATTAGTTACTCTCTTTGTCCCGGAGTCACCTAGTGCAG”, the binding signal is 6140 fluorescence intensity (a.u.).

Turning to “ACGCCGACACCGCCGCGCCGCTCCGCCGCCCCTATCACGCCGGAGTCACCTAGTGCAG”, the binding signal was 16100 fluorescence intensity (a.u.).

In the case of “AGACTAGTTTTAATCTGACTAGATTCCTTTTCAGCGTGAGCGGAGTCACCTAGTGCAG”, the binding signal was 5700 fluorescence intensity (a.u.).

Regarding “CGTGTCCTAATCACCTTGCTTACGTGGCACTTGCCGATTCCGGAGTCACCTAGTGCAG”, the binding signal was 43900 fluorescence intensity (a.u.).

For the sequence “CGTTGGGTGTGGGCAAGCGGGCCACGGCATCACGTGCCTTCGGAGTCACCTAGTGCAG”, the binding signal is 3160 fluorescence intensity (a.u.).

“TTCATATAAAATACACCGTTTAACAGTTTAATAAGCATTCCGGAGTCACCTAGTGCAG”: the binding signal is 12600 fluorescence intensity (a.u.).

Consider “GTCCATCTAATCTAAAGTATGGTTTCTTGGTGAGTGAGTGCGGAGTCACCTAGTGCAG”, for which the binding signal is 3710 fluorescence intensity (a.u.).

Turning to “TTTGTTCTAATCATCCTTCGATTGGGTTGGGTTGAGCAATCGGAGTCACCTAGTGCAG”, the binding signal is 3320 fluorescence intensity (a.u.).

On to “ACAACCTTATGCCTACATGGCGCATTTTGTTTGTTTGGGTCGGAGTCACCTAGTGCAG”, for which the binding signal was 3780 fluorescence intensity (a.u.).

As to “TATGTCATTGACATGTAGGTCCCACGTTAAGTCAGCTACCCGGAGTCACCTAGTGCAG”, the binding signal was 34900 fluorescence intensity (a.u.).

On to “TTGATGGAGATGGGAGTTGGTGCGGATGTCCTTGTCGCCCCGGAGTCACCTAGTGCAG”, for which the binding signal was 3200 fluorescence intensity (a.u.).

With “CGGAATTGCCCCAACCAAGGAGGAGACGGAGGGGAGGGCACGGAGTCACCTAGTGCAG”, the binding signal was 3290 fluorescence intensity (a.u.).

Regarding “AATTGTTTGGTTGGTAGAATGACGCCTCAATCCGCACCATCGGAGTCACCTAGTGCAG”, the binding signal is 3290 fluorescence intensity (a.u.).

“ATTGGGTCCAGTGGGTGAAGTGTACCAAGCCGAGGTGGGACGGAGTCACCTAGTGCAG”: the binding signal is 3490 fluorescence intensity (a.u.).

For the sequence “TCTCCAGCTATTTGACCAGGTTATCTCTGAGCTCCACAGTCGGAGTCACCTAGTGCAG”, the binding signal was 4300 fluorescence intensity (a.u.).

As to “AGCTGTGCAGCAGCAAGGACGGCCCAGAGAGAGATAGCCACGGAGTCACCTAGTGCAG”, the binding signal is 3490 fluorescence intensity (a.u.).

Regarding “CCTCCAATCCACTGGTAGCACACGCACGTCCATTCTTCGTCGGAGTCACCTAGTGCAG”, the binding signal was 3690 fluorescence intensity (a.u.).

Regarding “ATTTTCTCTGCAAAACGTGTCACTCAATTGTACTTCTTCCCGGAGTCACCTAGTGCAG”, the binding signal was 8000 fluorescence intensity (a.u.).

Turning to “CCACCCAGGTCAGTGAACATTCCTTCCTCTTCACATGCATCGGAGTCACCTAGTGCAG”, the binding signal was 3300 fluorescence intensity (a.u.).

In the case of “GATAAGCCGACGTGTCACCTCTTCCCGCCCTCCGGCCTCCCGGAGTCACCTAGTGCAG”, the binding signal is 21300 fluorescence intensity (a.u.).

For “TTTATGGAATTTTAACCCTGACATCCATCACTGAATTTGACGGAGTCACCTAGTGCAG”, the binding signal was 19200 fluorescence intensity (a.u.).

For the sequence “ATGTAGAGTGAAACGGCCACTCCGCTTTCAGGCCGCACGTCGGAGTCACCTAGTGCAG”, the binding signal is 3670 fluorescence intensity (a.u.).

With “GCGAGCTCCTGGAGGCGGCGAGGGCGCCGGAGTTCGCGGGCGGAGTCACCTAGTGCAG”, the binding signal is 37200 fluorescence intensity (a.u.).

For the sequence “TAATGGAGACAAAGCTAGCGCGCGAGCACATGCACGTCACCGGAGTCACCTAGTGCAG”, the binding signal is 3830 fluorescence intensity (a.u.).

As for “TGATGGATAAATATGTGTTATATGACTCATTGAAATGTATCGGAGTCACCTAGTGCAG”, the binding signal was 6120 fluorescence intensity (a.u.).

Turning to “AAGAGAGACAGATTTAAACCAGCTCAGCCAATCCCCTCCCCGGAGTCACCTAGTGCAG”, the binding signal is 3840 fluorescence intensity (a.u.).

Turning to “AACTCTTGACAGCACCGACCATACGTGTACACAACCCATCCGGAGTCACCTAGTGCAG”, the binding signal is 10200 fluorescence intensity (a.u.).

For “GGTATAGTGCCACGTGGCATCTGCCACTCCCGCCATCTCTCGGAGTCACCTAGTGCAG”, the binding signal is 32000 fluorescence intensity (a.u.).

For “GGACAACTTCCTCCCCACCGTCCACGTCGACCTCCGCCAGCGGAGTCACCTAGTGCAG”, the binding signal is 11600 fluorescence intensity (a.u.).

In the case of “TGGAGGAGGAGGAGGGGAGACCACCGGAGGTAGGCGAATCCGGAGTCACCTAGTGCAG”, the binding signal was 3140 fluorescence intensity (a.u.).

Consider “ATGATGATACGTATATATTGGGACTGCTCCATTCGTTTCACGGAGTCACCTAGTGCAG”, for which the binding signal is 3170 fluorescence intensity (a.u.).

Regarding “CCCTCCTCCTCGCCGCCGGCGCGGCGCGCGTGCAATGCAACGGAGTCACCTAGTGCAG”, the binding signal was 3620 fluorescence intensity (a.u.).

For “CGCCGTCCGCCTCCTCCGTCAGCAGGTTCCTCACCGCGTGCGGAGTCACCTAGTGCAG”, the binding signal is 7020 fluorescence intensity (a.u.).
